Assay [1] deals with cynomolgus SIRPα (cynomolgus). Description: FACS on CHO-K1 cells expressing cynomolgus SIRPα, anti-hFc secondary antibody.
For assay [2], the target named is cynomolgus SIRPα (cynomolgus). The assay can be described thus: FACS on CHO-K1 cells expressing cynomolgus SIRPα.

Results are given in words; binding and its absence hold for the method and conditions named. Some binding calls cover weakened binding; strength is not graded here.

B1: LM-101 (antibody, V domains shown)
VH: QVQLVQSGAEVKKPGSSVKVSCKASGYTFTSNYIHWVRQAPGQGLEWMGWIYPGDADTNYNQKFQGRVTLTADKSTSTAYMELSSLRSEDTAVYYCAINYGGIWFAYWGQGTLVTVSS
VL: DIQMTQSPSSLSASVGDRVTITCQASQDIGNKLIWYQQKPGKAPKLLIYYVTNLPGGVPSRFSGSGSGTDFTLTISSLQPEDFATYYCLQYKQNPLTFGQGTKLEIK
In the case of B1, the binding entry in assay [1] and in assay [2] was “binds” in each case.

(Values after EP4702053A1.)
